Laboratory results reported in article doi:10.1101/2021.10.11.463940.
No constants are given. Whether binding was seen depends on the method and setting. In cells and extracts the contact can be indirect. A yes stands for co-enrichment or nearness to the bait. Other partners may have been found. Where a sequence is shown, tags or fusion partners need not be part of it.

Sequences of proteins named here, by UniProt entry; tags and fusion partners are left off.
UniProt O08539: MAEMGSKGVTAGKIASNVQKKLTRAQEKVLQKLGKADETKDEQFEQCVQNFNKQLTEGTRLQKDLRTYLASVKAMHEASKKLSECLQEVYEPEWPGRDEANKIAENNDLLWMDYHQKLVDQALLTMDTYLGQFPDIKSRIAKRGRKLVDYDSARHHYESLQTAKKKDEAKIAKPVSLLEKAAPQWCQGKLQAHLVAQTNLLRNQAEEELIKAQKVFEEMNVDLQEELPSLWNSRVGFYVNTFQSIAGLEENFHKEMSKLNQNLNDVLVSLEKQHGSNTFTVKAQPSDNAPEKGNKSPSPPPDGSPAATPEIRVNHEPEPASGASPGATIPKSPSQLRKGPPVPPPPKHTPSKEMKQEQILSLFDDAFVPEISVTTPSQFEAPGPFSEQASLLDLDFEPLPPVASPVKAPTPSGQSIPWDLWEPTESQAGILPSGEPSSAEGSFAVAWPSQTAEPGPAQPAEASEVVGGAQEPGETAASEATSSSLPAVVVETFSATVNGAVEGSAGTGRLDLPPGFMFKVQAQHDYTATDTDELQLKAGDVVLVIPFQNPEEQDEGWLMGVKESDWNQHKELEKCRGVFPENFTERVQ
UniProt Q9QZB6: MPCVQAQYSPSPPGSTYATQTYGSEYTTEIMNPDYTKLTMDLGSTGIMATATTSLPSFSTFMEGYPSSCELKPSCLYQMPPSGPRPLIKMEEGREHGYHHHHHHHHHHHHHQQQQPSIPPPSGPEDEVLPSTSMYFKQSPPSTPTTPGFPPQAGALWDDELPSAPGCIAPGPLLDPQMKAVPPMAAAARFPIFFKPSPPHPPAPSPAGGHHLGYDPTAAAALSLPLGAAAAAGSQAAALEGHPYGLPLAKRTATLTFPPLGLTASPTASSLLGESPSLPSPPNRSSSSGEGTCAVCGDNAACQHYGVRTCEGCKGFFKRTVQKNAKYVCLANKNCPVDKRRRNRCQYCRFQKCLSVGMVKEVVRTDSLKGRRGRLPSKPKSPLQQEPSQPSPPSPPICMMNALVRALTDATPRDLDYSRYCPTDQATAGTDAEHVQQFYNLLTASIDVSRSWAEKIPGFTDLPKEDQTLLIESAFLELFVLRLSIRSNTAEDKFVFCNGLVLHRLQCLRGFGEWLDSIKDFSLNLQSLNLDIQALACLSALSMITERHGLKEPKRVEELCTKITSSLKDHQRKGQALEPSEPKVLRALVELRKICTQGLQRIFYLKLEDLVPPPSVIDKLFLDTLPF

T1: myotubularin (MTM1) with 6x-HIS tag, from Mtm1-6xHis mice (mouse (endogenous in mouse skeletal muscle)) (UniProt Q9Z2C5)
T1 sequence: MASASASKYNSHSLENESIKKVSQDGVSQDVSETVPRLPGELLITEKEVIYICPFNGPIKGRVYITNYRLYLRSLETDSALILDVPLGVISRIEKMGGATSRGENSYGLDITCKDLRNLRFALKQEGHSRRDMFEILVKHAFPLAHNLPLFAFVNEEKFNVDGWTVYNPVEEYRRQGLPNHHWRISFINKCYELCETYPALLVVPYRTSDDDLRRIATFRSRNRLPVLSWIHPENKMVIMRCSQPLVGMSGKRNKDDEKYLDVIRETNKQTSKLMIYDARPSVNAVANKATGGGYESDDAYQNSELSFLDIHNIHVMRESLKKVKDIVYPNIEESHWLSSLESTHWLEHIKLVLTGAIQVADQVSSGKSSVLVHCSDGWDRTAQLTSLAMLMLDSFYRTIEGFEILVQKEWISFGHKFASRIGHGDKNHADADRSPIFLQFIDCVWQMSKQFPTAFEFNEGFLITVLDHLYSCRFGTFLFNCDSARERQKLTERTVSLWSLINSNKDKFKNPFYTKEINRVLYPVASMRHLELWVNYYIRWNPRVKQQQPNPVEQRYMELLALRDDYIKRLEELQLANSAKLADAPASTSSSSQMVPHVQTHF


Biological target: T1, myotubularin (MTM1) with 6x-HIS tag, from Mtm1-6xHis mice (mouse (endogenous in mouse skeletal muscle))
Assay: affinity purification with mass spectrometry

Row | Molecule | binding
1 | BIN1 (from UniProt O08539 1-588) | binds
2 | reticulon 2 (RTN2) (from UniProt O70622-2) | binds
3 | Nuclear Receptor Subfamily 4 Group A Member (NR4A3) (from UniProt Q9QZB6 1-627) | binds
4 | MTMR12 (protein, UniProt Q80TA6 1-747) MLGKGGVGGGGGTKAPKPSFVSYVRPEEIHTDEKEVTEKEVTLHLLPGEQLLCEASTVLKYVQEDSCQRGVYGRLVCTDFKISFLGDEDSALDNGGEAQFKNKIIGVNDVPLHCVDQIYGVFDEKKKPLFGQLKKYPEKLVIHCKDLRVLHFCLRYTKEEEVKRIVSGIIHHTQSPKLLKRLFLFSYAAAVHGTATDSRNCTVMFDTPKDWCWELERTKGSVKYRTVSVNEGYRVSDRLPAYFVVPTPLPEDDVRRFQGHGIPIWCWSCHNGSALLKMSALPKEQDDGALQVQKSFLDGIYKTIHRPPYEMVKTEDLSSNFLSLQEIQSAYCKFKQLFLIDNSSEFWDTDIKWFSLLESSSWLDIIRRCLKKAIEITECLEAQNVNVLLLEENASDLCCLLSSLVQVMMDAHCRTRTGFQSLIQKEWVMGGHSFLDRCNHLHQSDKEEVPIFLLFLDCVWQLVHQYPPAFEFTETYLTVLSDSLYIPIFSTFFFNSPHQKDTNMGRENLDAQSKPLTLLTVWDWSVQFEPKAQTLLRNPLYVEKPKLDRGQQKGSRFKHQRQLSLPLTQSKSSPKRGFFREETDHLIKNLLGKRISKLINSSDDLQDSSREFYDSWHSKPTDYHGLLLPHIEGPEIKVWAQRYLRWIPEAQILGGGRVATMGKLLEMMEEVQSLQEKIEARHHRQEAVHAEAPGLLRNSVRLSSLFPFALLQRHSAKPVLPTSGWKALGGEDDLAKREDEFVDLGDV | binds
5 | MTMR10 (protein, UniProt Q7TPM9 1-771) MFSLKPPRPSFRSYLLPPAQTDDKISSEPKIKKLEPVLLPGEIVVNEVNFVRKCIATDTSQYDLWGKLICSNFKISFITDDPMPLQKFHYRNLLLGEHDVPLTCIEQIVTVNDHKRKQKVLGPNQKLKFNPTELIIYCKDFRIVRFRFDESGPESAKKVCLAIAHYSQPTDLQLLFAFEYVGKKYHNSANKVNGVSSGGGGVWSGAGSTGSQRTPLFETYSDWDRETKRTGASGWRVCSINEGYMISTCLPEYFVVPSSLADQDLKIFSHSFVGRRMPFWCWSHSNGSALVRMALIKDALQQRKIDQRICNAITKSHPQRSDVYKSDLDKALPNIQEIQAAFVKLKQLCVNEPFEETEEKWLSSLESTRWLEYVRAFLKHSAELVYILESQRLSVVLQEEEGRDLSCLVASLIQVMMDPYFRTITGFQSLIQKEWVMAGYQFLDRCNHLKRSEKESPLFLLFLDTTWQLLEQYPAAFEFSETYLAVLCDSTRISLFGTFLFNSPHQRVKQSTEFAISKNIQLGDEKGLKFPSVWDWALQFTAKDRTLFHNPFYIGKSTPCVQNGSRKSFKRTKKSYSSTLRGMPSCLKNGIITDQDLLPRRNSLVLKLKPDPPQHTDSQHSGAEQYFKEWFSRPANLHGIILPRLSGTHIKLWKLCYFRWVPEAQINLGGSIMAFHKLSLLADEVDMLSRMLRQHRSGPLEACYAELDQSRMYFRATGPHDTLGTPEFLSSSFPFSPVGNLCRRSILGTPLSKFLSGAKIWLSTETLANED | binds
